The values that follow come from article PMC3079617.

The test addresses DBD-bJun (DNA binding domain of PhaR fused to the bZIP domain of Jun). The test is described as follows: two-hybrid; bacterial two-hybrid in E. coli XL1-Blue: DBD (PhaR 1-106)-bait on the phaP promoter, prey-PhaP on PHB granules made in vivo (phaCAB), lacZ reporter under the phaP promoter, read as beta-galactosidase activity; LB with 20 g/L glucose, 14 h, 37°C, 200 rpm.

These are yes or no findings as the source states them, for the method shown. Some results given as binding are weak or reduced against the parent protein; the word gives no strength. Sequences can lack the tags named with a protein.

B1: bATF2-PhaP (bZIP domain of ATF2 fused to PhaP) (domain or fragment)
chain: GRRRRAANEDPDEKRRKFLERNRAAASRCRQKRKVWVQSLEKKAEDLSSLNGQLQSEVTLLRNEVAQLKQLLLAH
For the molecule B1, the binding entry was “binds”.

Consider CGGRIARLEEKVKTLKAQNSELASTANMLREQVAQLKQKVMNY (domain or fragment) [bJun-PhaP (bZIP domain of Jun fused to PhaP)], for which the binding entry is listed as “binds”.
